Like-named read-outs stand apart in the source and are kept apart here. No constants are given. Whether binding was seen depends on the method and setting. Binding calls can cover weak binding; strength is not graded here. Sequences can lack the tags named with a protein. For part of these data: Binding seen in cells or lysates may run through a third protein.
Experiments:
[1] = biological target: Bacillus subtilis PBP2B-ΔPASTA (BACTH fusion) (Bacillus subtilis 168); experiment: two-hybrid
[2] = biological target: Bacillus subtilis PBP2B-ΔPASTA (BACTH fusion) (Bacillus subtilis 168); experiment: two-hybrid; remark: listed apart in the source
[3] = biological target: GFP-PBP2B-ΔPASTA (Bacillus subtilis); experiment: co-IP

Row | Binder | binding [1] | binding [2] | binding [3]
1 | Bacillus subtilis DivIC (BACTH fusion) (protein, UniProt P37471 1-125) MNFSRERTITEIQNDYKEQVERQNQLKKRRRKGLYRRLTVFGALVFLTAIVLASSVWSQTSSLSAKEEKKEQLEKELKSLKTKQTDLKEEISKLKDEDYVTELARRDLFMSGDGEIIFNVEKKSK | no binding | – | –
2 | Bacillus subtilis DivIB (BACTH fusion) (protein, UniProt P16655 1-263) MNPGQDREKIVNIEERIPKIKEQRKQKANRRLISFIMLFFIMVLIIVYLQTPISKVSTISVTGNENVSKKEIIDLSDINSGDTEFWSLDKQKTEKKIQQNKLVKKAEISKSLPNKINIAIEEYKAIAYLEKDDVYYEVLENGSVLPNEVTPDDAGPILVNWTNAKKRSQMAKQLDALSNSLKQSISEIYYTPVKMDENRIKLYMNDGYVVTASIKTFADRMKTYPSIISQLSSNKKGIIHLEVATYFEEFGKNDKAAKKEDEN | binds | binds | –

Now from value to binder:

Row | binding [1] | binding [2] | binding [3] | Binder
3 | binds | binds | – | Bacillus subtilis FtsL (BACTH fusion) (protein, UniProt Q07867 1-117) MSNLAYQPEKQQRHAISPEKKVIVKKRASITLGEKVLLVLFAAAVLSVSLLIVSKAYAAYQTNIEVQKLEEQISSENKQIGDLEKSVADLSKPQRIMDIAKKNGLNLKDKKVKNIQE
4 | – | – | binds | DivIB-FLAG (protein, UniProt P16655 1-263) MNPGQDREKIVNIEERIPKIKEQRKQKANRRLISFIMLFFIMVLIIVYLQTPISKVSTISVTGNENVSKKEIIDLSDINSGDTEFWSLDKQKTEKKIQQNKLVKKAEISKSLPNKINIAIEEYKAIAYLEKDDVYYEVLENGSVLPNEVTPDDAGPILVNWTNAKKRSQMAKQLDALSNSLKQSISEIYYTPVKMDENRIKLYMNDGYVVTASIKTFADRMKTYPSIISQLSSNKKGIIHLEVATYFEEFGKNDKAAKKEDEN
